Data published in paper PMC7791120.
No constants are given. Whether binding was seen depends on the method and setting. In cells and extracts the contact can be indirect. Here binding means that the protein was enriched with, or labelled near, the bait; the list need not be complete.

By UniProt entry, the sequences of proteins in these tests, tags left out. Residues count along the entry.
UniProt P11021, residues 19-654: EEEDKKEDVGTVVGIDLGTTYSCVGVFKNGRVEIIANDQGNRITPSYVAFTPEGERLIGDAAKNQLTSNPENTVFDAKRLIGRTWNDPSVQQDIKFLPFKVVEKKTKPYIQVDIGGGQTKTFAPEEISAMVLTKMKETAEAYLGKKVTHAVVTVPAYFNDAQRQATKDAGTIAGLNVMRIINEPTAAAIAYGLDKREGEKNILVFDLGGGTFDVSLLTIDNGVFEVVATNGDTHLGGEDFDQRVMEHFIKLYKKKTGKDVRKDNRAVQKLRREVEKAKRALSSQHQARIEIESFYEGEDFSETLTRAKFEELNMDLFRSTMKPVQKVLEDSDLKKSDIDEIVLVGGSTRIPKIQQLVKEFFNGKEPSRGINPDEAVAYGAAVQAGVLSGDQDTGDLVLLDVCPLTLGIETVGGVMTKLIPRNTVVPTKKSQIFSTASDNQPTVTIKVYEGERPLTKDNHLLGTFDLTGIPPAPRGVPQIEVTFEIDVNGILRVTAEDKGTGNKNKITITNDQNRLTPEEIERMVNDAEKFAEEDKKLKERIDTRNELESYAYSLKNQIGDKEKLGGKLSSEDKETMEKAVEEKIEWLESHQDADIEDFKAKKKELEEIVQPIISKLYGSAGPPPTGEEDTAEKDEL
UniProt P09874: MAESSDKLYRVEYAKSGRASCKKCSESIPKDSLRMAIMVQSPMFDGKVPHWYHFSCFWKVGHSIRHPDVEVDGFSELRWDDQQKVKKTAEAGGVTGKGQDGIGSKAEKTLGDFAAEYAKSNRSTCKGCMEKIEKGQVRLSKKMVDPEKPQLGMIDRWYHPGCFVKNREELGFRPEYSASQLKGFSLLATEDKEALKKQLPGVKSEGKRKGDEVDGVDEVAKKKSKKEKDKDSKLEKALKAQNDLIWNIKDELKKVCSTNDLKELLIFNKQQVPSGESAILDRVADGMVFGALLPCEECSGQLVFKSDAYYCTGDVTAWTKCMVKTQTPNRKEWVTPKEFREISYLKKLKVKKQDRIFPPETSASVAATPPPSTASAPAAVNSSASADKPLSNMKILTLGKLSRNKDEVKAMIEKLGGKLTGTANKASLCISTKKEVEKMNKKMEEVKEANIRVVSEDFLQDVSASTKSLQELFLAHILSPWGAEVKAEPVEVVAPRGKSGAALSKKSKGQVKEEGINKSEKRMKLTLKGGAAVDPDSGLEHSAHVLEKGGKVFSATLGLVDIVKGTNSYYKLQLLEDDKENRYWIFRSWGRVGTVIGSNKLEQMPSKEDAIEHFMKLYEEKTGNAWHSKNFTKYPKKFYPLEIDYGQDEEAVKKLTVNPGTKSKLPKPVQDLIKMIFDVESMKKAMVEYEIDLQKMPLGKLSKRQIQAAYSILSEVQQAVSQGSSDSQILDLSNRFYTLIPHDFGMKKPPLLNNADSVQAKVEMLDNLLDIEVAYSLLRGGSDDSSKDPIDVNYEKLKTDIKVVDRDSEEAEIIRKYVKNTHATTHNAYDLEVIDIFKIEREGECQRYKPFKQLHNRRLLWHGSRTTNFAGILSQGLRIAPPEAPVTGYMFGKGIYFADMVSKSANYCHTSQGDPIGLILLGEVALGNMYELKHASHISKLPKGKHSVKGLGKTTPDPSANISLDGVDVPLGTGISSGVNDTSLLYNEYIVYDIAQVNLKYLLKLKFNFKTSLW

Biological target: T1, Tribbles homolog 2 (TRIB2), endogenous (human (endogenous in Bel-7402)) (UniProt Q92519)
T1 sequence: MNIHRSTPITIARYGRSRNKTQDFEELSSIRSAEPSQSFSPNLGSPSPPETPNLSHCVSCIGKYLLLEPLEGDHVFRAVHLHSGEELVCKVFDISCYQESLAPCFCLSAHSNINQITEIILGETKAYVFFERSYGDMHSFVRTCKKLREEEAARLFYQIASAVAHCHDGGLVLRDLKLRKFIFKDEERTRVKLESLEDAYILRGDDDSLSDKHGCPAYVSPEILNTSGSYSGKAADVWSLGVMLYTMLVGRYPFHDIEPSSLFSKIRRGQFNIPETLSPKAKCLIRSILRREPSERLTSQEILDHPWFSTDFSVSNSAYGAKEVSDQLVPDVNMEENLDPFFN
Assay: affinity purification with mass spectrometry; immunoprecipitates of Bel-7402 lysates with anti-TRIB2 antibodies (ab117981), Nano-LC ESI-QTOF-MS, three independent biological replicates

Row | Substance | binding
1 | GRP78, endogenous (from UniProt P11021 19-654) | binds
2 | PARP1, endogenous (from UniProt P09874 1-1014) | binds
